Values from PubChem BioAssay AID743121 (NCATS, 2013).

Purpose: 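Knock-downs that sensitise breast cancer cells to camptothecin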 (primary screen)
Cell system: MDA-MB-231 cells, a human breast cancer line
Reagents: single siRNA against human genes, 20 nM siRNA (0.8 pmol per well)
Duration: 120 h (drug added 48 h after transfection, read 72 h later)
Challenge: camptothecin 20 nM (about EC30) for 72 h; vehicle 0.1% DMSO in parallel plates
Detection: 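Cell viability by ATP luminescence (CellTiter-Glo) as % of non-targeting siRNA wells, and the log2 ratio of viability without drug over viability with camptothecin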
Direction: log2 vehicle/camptothecin viability: higher = stronger sensitisation to camptothecin
Call rule: 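Each gene scored by redundant siRNA activity (RSA) over its individual siRNA ratios; a gene is called active at p < 0.001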
This is an unselected part of about 26,000 reagents tested. 167 of them (0.63%) count as active. 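Calls are per gene from RSA p-values that are not deposited; an individual active-marked siRNA can sensitise only weakly.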 The numbers tell different reagents against one gene apart. Further read-outs or replicates are left out here. No sequences are given here.

gene knocked down | reagent no. | log2 vehicle/camptothecin viability | activity call
APEH | 1 | -0.36 | inactive
APEH | 2 | 0.0575 | inactive
APEH | 3 | -0.0661 | inactive
APEH | 4 | 0.00286 | inactive
GPR15 | 1 | -0.655 | inactive
GPR15 | 2 | -0.218 | inactive
GPR15 | 3 | -0.324 | inactive
GPR15 | 4 | -0.432 | inactive
KLK8 | 1 | 0.235 | inactive
KLK8 | 2 | -0.152 | inactive
KLK8 | 3 | -0.237 | inactive
KLK8 | 4 | -0.21 | inactive
HGFAC | 1 | -0.381 | inactive
HGFAC | 2 | -0.466 | inactive
HGFAC | 3 | -0.203 | inactive
HGFAC | 4 | 0.0566 | inactive
CHRNE | 1 | -0.787 | inactive
CHRNE | 2 | 0.0824 | inactive
CHRNE | 3 | -0.356 | inactive
CHRNE | 4 | 0.189 | inactive
CKS2 | 1 | -0.183 | inactive
CKS2 | 2 | 0.352 | inactive
CKS2 | 3 | -0.337 | inactive
CKS2 | 4 | 0.283 | inactive
TAAR5 | 1 | -0.0411 | inactive
TAAR5 | 2 | -0.49 | inactive
TAAR5 | 3 | -0.544 | inactive
TAAR5 | 4 | -0.187 | inactive
LRP10 | 1 | -0.138 | inactive
LRP10 | 2 | -0.11 | inactive
LRP10 | 3 | -0.218 | inactive
LRP10 | 4 | 0.235 | inactive

Records above whose gene name begins with C or c (8):
gene knocked down | reagent no. | log2 vehicle/camptothecin viability | activity call
CHRNE | 1 | -0.787 | inactive
CHRNE | 2 | 0.0824 | inactive
CHRNE | 3 | -0.356 | inactive
CHRNE | 4 | 0.189 | inactive
CKS2 | 1 | -0.183 | inactive
CKS2 | 2 | 0.352 | inactive
CKS2 | 3 | -0.337 | inactive
CKS2 | 4 | 0.283 | inactive

The list goes on:
gene knocked down | reagent no. | log2 vehicle/camptothecin viability | activity call
YES1 | 1 | -0.298 | inactive
YES1 | 2 | -0.29 | inactive
YES1 | 3 | 0.0672 | inactive
YES1 | 4 | -0.259 | inactive
ARPP19 | 1 | 0.00702 | inactive
ARPP19 | 2 | -0.458 | inactive
ARPP19 | 3 | -0.414 | inactive
ARPP19 | 4 | -0.0298 | inactive
ARSK | 1 | 0.185 | inactive
ARSK | 2 | -0.00908 | inactive
ARSK | 3 | -0.0671 | inactive
ARSK | 4 | -0.349 | inactive
KCNJ6 | 1 | -0.0229 | inactive
KCNJ6 | 2 | -0.606 | inactive
KCNJ6 | 3 | -0.2 | inactive
KCNJ6 | 4 | -0.309 | inactive
TMX3 | 1 | -0.232 | inactive
TMX3 | 2 | 0.042 | inactive
TMX3 | 3 | 0.0538 | inactive
TMX3 | 4 | 0.0733 | inactive
RARB | 1 | -0.548 | inactive
RARB | 2 | -0.369 | inactive
RARB | 3 | -0.217 | inactive
RARB | 4 | -0.0209 | inactive
NSMCE1 | 1 | -0.105 | inactive
NSMCE1 | 2 | -0.13 | inactive
NSMCE1 | 3 | -0.555 | inactive
NSMCE1 | 4 | -0.192 | inactive
COQ3 | 1 | -0.284 | inactive
COQ3 | 2 | 0.292 | inactive
COQ3 | 3 | 0.107 | inactive
COQ3 | 4 | 0.0387 | inactive
PCLAF | 1 | -0.166 | inactive
PCLAF | 2 | -0.186 | inactive
PCLAF | 3 | 0.0292 | inactive
SP110 | 1 | 0.025 | inactive
SP110 | 2 | -0.377 | inactive
SP110 | 3 | -0.295 | inactive
